From US6541450B1 (National Research Council of Canada, priority 1994, dated 2003) come the findings set out here.

Bridges are numbered along the chain shown (N, C = ends).

The nature of this data set: general procedure: Fmoc solid-phase peptide synthesis; Tentagel R (Rapp Polymere); HOBt/TBTU/DIPEA. The settings on record: whole synthesis.

On to “H-SVSEIQLMHNLGKHLNSMERVEWLRKLLQD-NH2 (lactam 22-26; SMILES CC[C@H](C)[C@H](NC(=O)[C@H](CCC(=O)O)NC(=O)[C@H](CO)NC(=O)[C@@H](NC(=O)[C@@H](N)CO)C(C)C)C(=O)N[C@@H](CCC(N)=O)C(=O)N[C@@H](CC(C)C)C(=O)N[C@@H](CCSC)C(=O)N[C@@H](Cc1c[nH]cn1)C(=O)N[C@@H](CC(N)=O)C(=O)N[C@@H](CC(C)C)C(=O)NCC(=O)N[C@@H](CCCCN)C(=O)N[C@@H](Cc1c[nH]cn1)C(=O)N[C@@H](CC(C)C)C(=O)N[C@@H](CC(N)=O)C(=O)N[C@@H](CO)C(=O)N[C@@H](CCSC)C(=O)N[C@@H](CCC(=O)O)C(=O)N[C@@H](CCCNC(=N)N)C(=O)N[C@H](C(=O)N[C@H]1CCC(=O)NCCCC[C@@H](C(=O)N[C@@H](CC(C)C)C(=O)N[C@@H](CC(C)C)C(=O)N[C@@H](CCC(N)=O)C(=O)N[C@@H](CC(=O)O)C(N)=O)NC(=O)[C@H](CCCNC(=N)N)NC(=O)[C@H](CC(C)C)NC(=O)[C@H](Cc2c[nH]c3ccccc23)NC1=O)C(C)C)”, for which the “final purity (method not given)” value was over 97%.
As for Cyclo(Lys^27-Asp^30)-hPTH-(1-31)-NH2, the “final purity (method not given)” value is recorded as over 95%.
